Laboratory results as given in PMC9845743.
Results are given in words; binding and its absence hold for the method and conditions named. In cells and extracts the contact can be indirect. These calls come from enrichment with a bait or labelling near it, and not all partners need be listed. For part of these data: No binding means not detected with the bait. For part of these data: Where a sequence is shown, tags or fusion partners need not be part of it. Blank lines part the entries; values can stand above or below the molecule they belong to.

Sequences of proteins named here, by UniProt entry; tags and fusion partners are left off.
UniProt Q60722: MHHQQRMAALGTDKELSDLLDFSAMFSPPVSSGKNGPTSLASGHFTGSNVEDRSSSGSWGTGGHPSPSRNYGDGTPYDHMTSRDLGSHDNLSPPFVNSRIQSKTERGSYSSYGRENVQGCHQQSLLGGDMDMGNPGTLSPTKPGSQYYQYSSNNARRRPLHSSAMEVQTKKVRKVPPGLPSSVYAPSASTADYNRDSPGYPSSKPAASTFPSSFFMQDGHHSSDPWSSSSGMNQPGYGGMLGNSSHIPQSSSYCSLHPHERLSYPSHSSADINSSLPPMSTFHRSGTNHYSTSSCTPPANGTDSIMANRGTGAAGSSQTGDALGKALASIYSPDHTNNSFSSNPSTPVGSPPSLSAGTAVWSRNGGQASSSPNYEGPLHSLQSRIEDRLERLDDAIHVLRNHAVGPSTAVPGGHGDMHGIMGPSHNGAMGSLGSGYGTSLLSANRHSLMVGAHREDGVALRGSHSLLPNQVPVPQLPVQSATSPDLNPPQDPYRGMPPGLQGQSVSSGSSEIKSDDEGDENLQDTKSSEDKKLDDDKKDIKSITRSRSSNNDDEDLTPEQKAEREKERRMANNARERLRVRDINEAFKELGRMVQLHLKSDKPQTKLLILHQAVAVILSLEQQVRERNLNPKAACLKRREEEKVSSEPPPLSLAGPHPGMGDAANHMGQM

Legend:
Test in all cases: affinity purification with mass spectrometry; FLAG-tagged bait (ID1, ID2, ID3, TCF3 or TCF4) transfected into mouse epidermal progenitor cells; precipitated on Sepharose beads with anti-FLAG M2 (IgG as control), washed in TBS, eluted with FLAG peptide (200 ug/ml in TBS), eluate analysed by mass spectrometry; hits scored by lack of signal in the IgG control, coverage and protein score
[1] = biological target: T1, FLAG-tagged ID2 (UniProt P41136)
T1 sequence: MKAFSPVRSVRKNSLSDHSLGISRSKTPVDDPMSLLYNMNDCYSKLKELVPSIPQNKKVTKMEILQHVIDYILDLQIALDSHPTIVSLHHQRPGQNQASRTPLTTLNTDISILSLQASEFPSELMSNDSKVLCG

[2] = biological target: FLAG-tagged TCF4 (UniProt Q60722)
[3] = biological target: T2, FLAG-tagged ID3, P41133; conditions: remark: other sources report otherwise
T2 chain: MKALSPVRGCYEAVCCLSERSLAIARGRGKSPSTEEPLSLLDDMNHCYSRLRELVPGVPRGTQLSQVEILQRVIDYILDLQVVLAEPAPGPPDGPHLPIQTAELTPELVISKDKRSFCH

binding [1]: no binding
Molecule: TCF3 (E2A) (from UniProt P15806 1-651)

binding [2]: binds
B1: ID1 (endogenous) (protein, UniProt P20067 1-168)
chain: MKVASGSAAAAAGPSCSLKAGRTAGEVVLGLSEQSVAISRCAGTRLPALLDEQQVNVLLYDMNGCYSRLKELVPTLPQNRKVSKVEILQHVIDYIRDLQLELNSESEVGTTGGRGLPVRAPLSTLNGEISALAAEVRSESEYYIILQWETEATGGGCPPSLLFRRIAI

binding [3]: no binding
B2: TCF3 (E2A), P15806 1-651 (protein)
chain: MMNQSQRMAPVGSDKELSDLLDFSMMFPLPVANGKSRPASLGGTQFAGSGLEDRPSSGSWGSSDQNSSSFDPSRTYSEGAHFSDSHSSLPPSTFLGAGLGGKGSERNAYATFGRDTSVGTLSQAGFLPGELSLSSPGPLSPSGIKSSSQYYPSFPSNPRRRAADGGLDTQPKKVRKVPPGLPSSVYPPSSGDSYSRDAAAYPSAKTPSSAYPSPFYVADGSLHPSAELWSTPSQVGFGPMLGDGSSPLPLAPGSSSVGSGTFGGLQQQDRMGYQLHGSEVNGSLPAVSSFSAAPGTYSGTSGHTPPVSGAAAESLLGTRGTTASSSGDALGKALASIYSPDHSSNNFSPSPSTPVGSPQGLPGTSQWPRAGAPSALSPNYDAGLHGLSKMEDRLDEAIHVLRSHAVGTASDLHGLLPGHGALTTSFTGPMSLGGRHAGLVGGSHPEEGLTSGASLLHNHASLPSQPSSLPDLSQRPPDSYSGLGRAGTTAGASEIKREEKEDEEIASVADAEEDKKDLKVPRTRTSPDEDEDDLLPPEQKAEREKERRVANNARERLRVRDINEAFKELGRMCQLHLSSEKPQTKLLILHQAVAVILSLEQQVRERNLNPKAACLKRREEEKVSGVVGDPQLALSAAHPGLGEAHNPAGHL
